Patent US6060257A, “Tumor rejection antigens presented by HLA-B44 molecules, and uses thereof” (Ludwig Institute for Cancer Research, priority 1996, dated 2000)
Part of at least one peptide drawing is inferred or uncertain, most often the ends. Where a SMILES comes first, the peptide text is derived from it.

Tests used:
[1] = test system: HLA-B4402^+ or HLA-B4403^+ EBV-transformed B cells; assay: 51Cr release assay of peptide-pulsed HLA-B4402+ or HLA-B4403+ EBV-transformed B cells with CTLs of Example 14; format: cell-based, human; conditions: cells do not express MAGE-3; varied peptide concentrations; chromium release after four hours
[2] = test system: CTL clone 159/5; assay: Recognition of Ala derivatives of SEQ ID NO: 2 by CTL clone 159/5 (experiments not reported); format: cell-based, human
[3] = target: T1, HLA-B*4402 (Homo sapiens, UniProt P01889, A223V/A65T/A93T/A95T/D201E/D98Y/E176V/E187L/E204Q/E69K/G107R/H137Y/K202T/L105A/L119I/N104T/N87E/Q56L/Q94N/R106L/R155S/R180D/S101N/S121R/S35A/S48T/T118I/V36M/W191S/Y140D/Y91S); assay: Competitive assay: inhibition of CTL 159/5 lysis of C1R-B*4402 cells sensitized with SEQ ID NO: 18; format: cell-based; conditions: C1R-B44 cells (B*4402 and B*4403 transfectants)
T1 construct: expressed in transfected cells; host or cells: C1R cells (MHC class I negative, EBV-transformed lymphoblastoid)

[4] = test system: HLA-B44 molecule; assay: Binding of peptides homologous to SEQ ID NO: 17 to HLA-B44 (experiments not reported / only summarized); design: species or system human; conditions: both HLA-B44 subtypes
[5] = test system: CTL clones specific for SEQ ID NO: 17/HLA-B44 complexes; assay: Recognition of MAGE-6 homologous peptide by the specific CTL clones (only summarized); format: cell-based, human

CC[C@H](C)[C@H](NC(=O)[C@@H]1CCCN1C(=O)[C@H](CC(=O)O)NC(=O)[C@@H](NC(=O)[C@H](CCC(=O)O)NC(=O)[C@@H](N)CCSC)C(C)C)C(=O)NCC(=O)N[C@@H](Cc1c[nH]cn1)C(=O)N[C@@H](CC(C)C)C(=O)N[C@@H](Cc1ccc(O)cc1)C(=O)O [SEQ ID NO: 17]
lysis of peptide-incubated cells by CTLs [1]: provoke lysis

CC[C@H](C)[C@H](NC(=O)[C@H](CC(C)C)NC(=O)[C@H](CCCCN)NC(=O)[C@H](CCC(=O)O)NC(=O)[C@@H](N)CCC(=O)O)C(=O)N[C@H](C(=O)N[C@H](C(=O)N[C@@H](C)C(=O)N[C@@H](Cc1ccccc1)C(=O)O)C(C)C)C(C)C [SEQ ID NO: 18] (H-EEKLIVVAF-OH)
recognition of complexes by CTL clone 159/5 compared with SEQ ID NO: 2 [2]: slightly better

CC(C)C[C@H](NC(=O)[C@H](CCC(=O)O)NC(=O)[C@H](CCC(=O)O)NC(=O)[C@@H](N)Cc1c[nH]c2ccccc12)C(=O)N[C@@H](CO)C(=O)N[C@H](C(=O)N[C@@H](CC(C)C)C(=O)N[C@@H](CCC(=O)O)C(=O)N[C@H](C(=O)N[C@@H](Cc1ccccc1)C(=O)O)C(C)C)C(C)C [SEQ ID NO: 21] (H-WEELSVLEVF-OH)
inhibition of lysis of C1R-B44 cells (indicates binding to HLA-B44 molecules) [3]: did inhibit lysis

CC(C)C[C@H](NC(=O)[C@H](CCC(=O)O)NC(=O)[C@@H](N)CCC(=O)O)C(=O)N[C@@H](CO)C(=O)N[C@H](C(=O)N[C@@H](CC(C)C)C(=O)N[C@@H](CCC(=O)O)C(=O)N[C@H](C(=O)N[C@@H](Cc1ccccc1)C(=O)O)C(C)C)C(C)C [SEQ ID NO: 22]
inhibition of lysis of C1R-B44 cells (indicates binding to HLA-B44 molecules) [3]: did inhibit lysis

CC[C@H](C)[C@H](NC(=O)[C@@H]1CCCN1C(=O)[C@H](CC(=O)O)NC(=O)[C@@H](NC(=O)[C@H](CCC(=O)O)NC(=O)[C@@H](N)CCSC)C(C)C)C(=O)NCC(=O)N[C@@H](Cc1c[nH]cn1)C(=O)N[C@H](C(=O)N[C@@H](Cc1ccc(O)cc1)C(=O)O)C(C)C [peptide from MAGE-6] (H-MEVDPIGHVY-OH)
binding to HLA-B44 subtypes [4]: bound efficiently | recognition by the specific CTL clones [5]: did not recognize it
